Laboratory results taken from US5643877A (University of Maryland Biotechnology Institute, priority 1994, dated 1997).
HELM strings list residues between dots; [ac] is acetyl, [am] amide, other brackets name non-standard units.

Experiment: Boc solid-phase peptide synthesis; methylbenzhydrylamine resin
Conditions: whole synthesis, reverse phase HPLC

Substance: PEPTIDE1{[pGlu].H.W.S.Y.G.L.S.P.G.[am]}$$$$V2.0
- final HPLC purity: >97% pure
